Source: the supplement of paper PMC10626197
Several reference drugs read as weak here; read low effects with care.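 Drug pairs were tested on MCF7 breast cancer cells in a dose grid. On every plate, solvent-only DMSO wells served as the untreated reference, and a doxorubicin series served as the total-kill control. No hit threshold applies to the viability readings.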

Test system: MCF7
Assay: cell viability relative to DMSO control (raw); higher = more viable cells
Settings: exposure time 72 h
Description: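 MCF7 cells, 1000 cells/well in 384-well plates, treated with 6x6 dose matrices of drug pairs (1:3 serial dilutions, DMSO as lowest dose) for 72 h at 37 °C. Viability read by CellTiter-Glo luminescence, 3 biological replicates. Normalised viability sets 0% at the highest doxorubicin dose and 100% at the 0,0 µM control per combination.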

Cc1ccc(Nc2nccc(N(C)c3ccc4c(C)n(C)nc4c3)n2)cc1S(N)(=O)=O [Pazopanib] + COc1cc2ncnc(Nc3ccc(F)c(Cl)c3)c2cc1NC(=O)/C=C/CN1CCCCC1 [Dacomitinib]
cell viability [%]
Settings	drug 2 concentration 0 µM	drug 2 concentration 0.246914 µM	drug 2 concentration 0.740741 µM	drug 2 concentration 2.22222 µM	drug 2 concentration 6.66667 µM	drug 2 concentration 20 µM
drug 1 concentration 0.617284 µM	108	116	100	94.5	38.3	0.658
drug 1 concentration 1.85185 µM	110	105	110	94.3	34.6	0.634
drug 1 concentration 5.55556 µM	77.3	78.6	77.1	70.5	34.7	0.641
drug 1 concentration 16.6667 µM	56.6	54.5	57.8	62.6	23.9	0.454
drug 1 concentration 50 µM	48.6	53.3	49.3	38.3	7.63	0.87

COc1cc2/c(=N/c3ccc(Br)cc3F)nc[nH]c2cc1OCC1CCN(C)CC1 [Vandetanib] + C=C1/C(=C\C=C2/CCC[C@]3(C)[C@@H]([C@H](C)CCCC(C)C)CC[C@@H]23)C[C@@H](O)C[C@@H]1O [Alfacalcidol]
cell viability [%]
Settings	drug 2 concentration 0 µM	drug 2 concentration 0.617284 µM	drug 2 concentration 1.85185 µM	drug 2 concentration 5.55556 µM	drug 2 concentration 16.6667 µM	drug 2 concentration 50 µM
drug 1 concentration 0.0617284 µM	77.6	77.89	75.8	70	62.7	0.72
drug 1 concentration 0.185185 µM	76.75	74.6	75.58	73.8	61.6	0.334
drug 1 concentration 0.555556 µM	68.9	70.9	68	73.1	56.7	0.332
drug 1 concentration 1.66667 µM	70	67.9	65.9	65.1	55.5	0.217
drug 1 concentration 5 µM	66.5	62.4	63.3	57.4	37.3	0.384

CO[C@H]1C(=O)[C@]2(C)[C@@H](OC)C[C@H]3OC[C@@]3(OC(C)=O)[C@H]2[C@H](OC(=O)c2ccccc2)[C@]2(O)C[C@H](OC(=O)[C@H](O)[C@@H](NC(=O)OC(C)(C)C)c3ccccc3)C(C)=C1C2(C)C [Cabazitaxel] + COc1cc2ncnc(Nc3ccc(F)c(Cl)c3)c2cc1NC(=O)/C=C/CN1CCCCC1 [Dacomitinib]
cell viability [%]
Settings	drug 2 concentration 0 µM	drug 2 concentration 0.246914 µM	drug 2 concentration 0.740741 µM	drug 2 concentration 2.22222 µM	drug 2 concentration 6.66667 µM	drug 2 concentration 20 µM
drug 1 concentration 0.0184691 µM	109	105	100	88.3	34.1	0.525
drug 1 concentration 0.0554074 µM	101	103	108	98.5	33.2	0.699
drug 1 concentration 0.166222 µM	113	110	106	85.3	39.7	0.592
drug 1 concentration 0.498667 µM	102	102	105	98.9	3.52	0.332
drug 1 concentration 1.496 µM	109	108	109	96.9	37.6	0.755

CO[C@H]1C(=O)[C@]2(C)[C@@H](OC)C[C@H]3OC[C@@]3(OC(C)=O)[C@H]2[C@H](OC(=O)c2ccccc2)[C@]2(O)C[C@H](OC(=O)[C@H](O)[C@@H](NC(=O)OC(C)(C)C)c3ccccc3)C(C)=C1C2(C)C [Cabazitaxel] + CN1CCN(c2nc(C3=C(c4c[nH]c5ccccc45)C(=O)NC3=O)c3ccccc3n2)CC1 [Sotrastaurin]
cell viability [%]
Settings	drug 2 concentration 0 µM	drug 2 concentration 0.0123457 µM	drug 2 concentration 0.037037 µM	drug 2 concentration 0.111111 µM	drug 2 concentration 0.333333 µM	drug 2 concentration 1 µM
drug 1 concentration 0.0184691 µM	76.1	71.6	79.2	79.4	73.1	73.3
drug 1 concentration 0.0554074 µM	77.1	76	77.9	75	75.4	77.6
drug 1 concentration 0.166222 µM	85.7	87.2	84.3	82.8	80.8	82.1
drug 1 concentration 0.498667 µM	79.9	78.6	84.4	82	79.1	76.9
drug 1 concentration 1.496 µM	80.4	81	85.5	80.2	75.3	78

COc1cc2ncnc(Nc3ccc(F)c(Cl)c3)c2cc1OCCCN1CCOCC1 [Gefitinib] + C=C1/C(=C\C=C2/CCC[C@]3(C)[C@@H]([C@H](C)CCCC(C)C)CC[C@@H]23)C[C@@H](O)C[C@@H]1O [Alfacalcidol]
cell viability [%]
Settings	drug 2 concentration 0 µM	drug 2 concentration 0.617284 µM	drug 2 concentration 1.85185 µM	drug 2 concentration 5.55556 µM	drug 2 concentration 16.6667 µM	drug 2 concentration 50 µM
drug 1 concentration 0.123457 µM	88.1	82	78	77.9	64	0.866
drug 1 concentration 0.37037 µM	93.1	83.4	84.4	79.4	66.8	0.546
drug 1 concentration 1.11111 µM	86.9	83.5	82.2	84.6	62.1	0.392
drug 1 concentration 3.33333 µM	86.37	82.4	82	76.3	63.3	0.336
drug 1 concentration 10 µM	77.1	59.4	66.2	53.3	41.2	3.6

CC(C)Cn1cnc2c(N)nc3ccccc3c21 [Imiquimod] + Cn1c(=O)c2nc[nH]c2n(C)c1=O [Theophylline]
cell viability [%]
Settings	drug 2 concentration 0 µM	drug 2 concentration 0.123457 µM	drug 2 concentration 0.37037 µM	drug 2 concentration 1.11111 µM	drug 2 concentration 3.33333 µM	drug 2 concentration 10 µM
drug 1 concentration 0.0123457 µM	107	102	104	103	107	104
drug 1 concentration 0.037037 µM	99.7	96.9	100	99.6	97.4	94.4
drug 1 concentration 0.111111 µM	98.3	96.4	97.7	100	100	94.8
drug 1 concentration 0.333333 µM	107	95	109	97.1	107	103
drug 1 concentration 1 µM	113	106	108	110	111	101

CO[C@H]1C(=O)[C@]2(C)[C@@H](OC)C[C@H]3OC[C@@]3(OC(C)=O)[C@H]2[C@H](OC(=O)c2ccccc2)[C@]2(O)C[C@H](OC(=O)[C@H](O)[C@@H](NC(=O)OC(C)(C)C)c3ccccc3)C(C)=C1C2(C)C [Cabazitaxel] + COc1cc(Nc2ncc3c(n2)-c2ccc(Cl)cc2C(c2c(F)cccc2OC)=NC3)ccc1C(=O)O [Alisertib]
cell viability [%]
Settings	drug 2 concentration 0 µM	drug 2 concentration 0.0617284 µM	drug 2 concentration 0.185185 µM	drug 2 concentration 0.555556 µM	drug 2 concentration 1.66667 µM	drug 2 concentration 5 µM
drug 1 concentration 0.0184691 µM	83.2	80.2	77	81.6	81.6	76.5
drug 1 concentration 0.0554074 µM	90.2	81.8	86.1	86.5	87.4	83.3
drug 1 concentration 0.166222 µM	80.3	76.4	80.7	83.1	82.1	77.9
drug 1 concentration 0.498667 µM	82.4	83.6	81.8	92.7	82	74.5
drug 1 concentration 1.496 µM	78.5	89.7	91.2	103	91.8	76.1

CC[C@]1(O)C[C@H]2CN(CCc3c([nH]c4ccccc34)[C@@](C(=O)OC)(c3cc4c(cc3OC)N(C=O)[C@H]3[C@@](O)(C(=O)OC)[C@H](OC(C)=O)[C@]5(CC)C=CCN6CC[C@]43[C@@H]65)C2)C1 [Vincristine] + Cc1c(-c2ccc(O)cc2)n(Cc2ccc(OCCN3CCCCCC3)cc2)c2ccc(O)cc12 [Bazedoxifene (acetate)]
cell viability [%]
Settings	drug 2 concentration 0 µM	drug 2 concentration 0.123457 µM	drug 2 concentration 0.37037 µM	drug 2 concentration 1.11111 µM	drug 2 concentration 3.33333 µM	drug 2 concentration 10 µM
drug 1 concentration 0.0037037 µM	91.5	82.8	82.8	86.3	71.2	5.53
drug 1 concentration 0.0111111 µM	100	92.6	91.3	90.5	76.7	6.53
drug 1 concentration 0.0333333 µM	82.9	82.5	82.9	78.33	59.4	8.24
drug 1 concentration 0.1 µM	96	82.9	83	74.4	62	8.13
drug 1 concentration 0.3 µM	84.6	82.6	79	69.6	56.7	6.75

O=C1c2c(O)ccc(O)c2C(=O)c2c(NCCNCCO)ccc(NCCNCCO)c21 [Mitoxantrone] + CN(C)CCOc1ccc(/C(=C(/CCCl)c2ccccc2)c2ccccc2)cc1 [Toremifene (citrate)]
cell viability [%]
Settings	drug 2 concentration 0 µM	drug 2 concentration 0.432099 µM	drug 2 concentration 1.2963 µM	drug 2 concentration 3.88889 µM	drug 2 concentration 11.6667 µM	drug 2 concentration 35 µM
drug 1 concentration 0.0123457 µM	77.3	79.7	76.6	70.6	25.4	0.301
drug 1 concentration 0.037037 µM	65.8	68.7	73.3	60.6	32	0.529
drug 1 concentration 0.111111 µM	67.6	62.9	66.6	56	42.3	0.316
drug 1 concentration 0.333333 µM	49.1	50.9	50.7	46.4	15.4	0.328
drug 1 concentration 1 µM	40.6	36.3	35.6	35.4	11.9	0.31

CC[C@]1(O)C[C@H]2CN(CCc3c([nH]c4ccccc34)[C@@](C(=O)OC)(c3cc4c(cc3OC)N(C=O)[C@H]3[C@@](O)(C(=O)OC)[C@H](OC(C)=O)[C@]5(CC)C=CCN6CC[C@]43[C@@H]65)C2)C1 [Vincristine] + Cc1ncc(NC(=O)c2ccc(CN3CCN(C)CC3)c(C(F)(F)F)c2)cc1Nc1nccc(-c2cccnc2)n1 [Flumatinib (mesylate)]
cell viability [%]
Settings	drug 2 concentration 0 µM	drug 2 concentration 0.617284 µM	drug 2 concentration 1.85185 µM	drug 2 concentration 5.55556 µM	drug 2 concentration 16.6667 µM	drug 2 concentration 50 µM
drug 1 concentration 0.0037037 µM	98.6	98.7	102	102	2.02	1.37
drug 1 concentration 0.0111111 µM	108	107	110	107	3.2	0.296
drug 1 concentration 0.0333333 µM	98.6	100	95.3	89.6	2.35	0.309
drug 1 concentration 0.1 µM	95.7	95.8	84.3	67.7	1.93	0.693
drug 1 concentration 0.3 µM	92	91.9	82.2	70.6	2.01	0.556
